Results from article PMC4650699.
Positions count from the first letter of the chain named. Names may count otherwise. These are yes or no findings as the source states them, for the method shown.

How the values were obtained:
Test in all cases: SEC + other: dynamic light scattering; elution profiles on size-exclusion column (Superdex 75, 20 mM Tris-HCl pH 8.0, 300 mM NaCl, 1 mM DTT, 1 mM PMSF); DLS at 40 μM protein in a DynaPro plate reader; both purified
[1] = target: EcEndoV-FL-Y73F (E. coli) (UniProt P68739)
[2] = target: EcEndoV-FL-S144A (E. coli) (UniProt P68739)
[3] = target: EcEndoV-FL-D183R (E. coli) (UniProt P68739)
[4] = target: EcEndoV double mutant E140R/S144A (E. coli) (UniProt P68739)

B1: EcEndoV-FL-Y73F (enzyme, UniProt P68739 1-223)
chain: MDLASLRAQQIELASSVIREDRLDKDPPDLIAGADVGFEQGGEVTRAAMVLLKYPSLELVEYKVARIATTMPFIPGFLSFREYPALLAAWEMLSQKPDLVFVDGHGISHPRRLGVASHFGLLVDVPTIGVAKKRLCGKFEPLSSEPGALAPLMDKGEQLAWVWRSKARCNPLFIATGHRVSVDSALAWVQRCMKGYRLPEPTRWADAVASERPAFVRYTANQP
In the case of B1, the binding [1] is reported as “no binding (tested: 40 μM (DLS))”.

B2: EcEndoV-FL-S144A (enzyme, UniProt P68739 1-223)
chain: B1 chain with F73Y, S144A
In the case of B2, the binding [2] is reported as “no binding (tested: 40 μM (DLS))”.

B3: EcEndoV-FL-D183R (enzyme, UniProt P68739 1-223)
chain: B1 chain with F73Y, D183R
For B3, the binding [3] was “no binding (tested: 40 μM (DLS))”.

B4: EcEndoV double mutant E140R/S144A (enzyme, UniProt P68739 1-223)
chain: B1 chain with F73Y, E140R, S144A
With B4 the binding [4] was “no binding (tested: 40 μM (DLS))”.
